These are yes or no findings as the source states them, for the method shown. In cells and extracts the contact can be indirect. Binding can be weak; no strength is given. Sequences can lack the tags named with a protein. Each block holds one molecule with its values, some of them ahead of it.
Assays:
[1] = biological target: T1, cdhr1a fused to a C-terminal FLAG tag (zebrafish) (UniProt Q6B3P0); assay: co-IP; HEK293 cells co-transfected with cdhr1a-FLAG and pcdh15b-MYC, 24 h; membrane protein extract; one sample on anti-FLAG magnetic beads, another on anti-MYC magnetic beads; blots for FLAG and MYC
T1 sequence: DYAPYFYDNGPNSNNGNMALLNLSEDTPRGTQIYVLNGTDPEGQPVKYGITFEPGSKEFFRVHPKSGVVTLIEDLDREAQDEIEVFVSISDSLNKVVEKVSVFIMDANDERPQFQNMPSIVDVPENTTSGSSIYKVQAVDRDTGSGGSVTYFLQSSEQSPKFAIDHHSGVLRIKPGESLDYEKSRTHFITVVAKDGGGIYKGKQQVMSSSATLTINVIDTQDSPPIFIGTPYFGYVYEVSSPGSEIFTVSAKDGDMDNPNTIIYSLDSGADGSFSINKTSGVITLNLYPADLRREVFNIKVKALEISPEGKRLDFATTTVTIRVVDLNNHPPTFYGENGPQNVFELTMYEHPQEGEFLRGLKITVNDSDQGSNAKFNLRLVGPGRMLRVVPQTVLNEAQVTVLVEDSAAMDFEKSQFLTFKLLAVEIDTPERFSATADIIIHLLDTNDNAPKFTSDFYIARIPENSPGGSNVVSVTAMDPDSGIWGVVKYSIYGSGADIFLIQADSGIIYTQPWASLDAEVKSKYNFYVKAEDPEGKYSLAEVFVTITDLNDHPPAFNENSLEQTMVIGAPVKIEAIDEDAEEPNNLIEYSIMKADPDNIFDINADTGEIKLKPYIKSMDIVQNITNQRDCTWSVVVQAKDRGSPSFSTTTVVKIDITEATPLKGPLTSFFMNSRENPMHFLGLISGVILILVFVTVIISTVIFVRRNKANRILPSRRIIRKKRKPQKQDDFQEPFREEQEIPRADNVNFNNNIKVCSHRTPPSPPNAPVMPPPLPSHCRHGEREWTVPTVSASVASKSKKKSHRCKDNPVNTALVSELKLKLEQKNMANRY

[2] = biological target: pcdh15b fused to a C-terminal MYC tag (zebrafish); assay: as above

binding [1]: binds
Molecule: pcdh15b fused to a C-terminal MYC tag (zebrafish)

binding [2]: binds
B1: cdhr1a fused to a C-terminal FLAG tag (protein, UniProt Q6B3P0 26-857)
chain: T1 sequence
